These are yes or no findings as the source states them, for the method shown. In cells and extracts the contact can be indirect. Some entries that bind do so weakly or less than the wild type.
Target: checkpoint kinase Chk2 (human (endogenous in HEK293)) (UniProt O96017)
Experiment: co-IP; HEK293 cells, IP with a Chk2 antibody, immunoblot for Ape1 and Chk2; cells asynchronous/untreated or treated with BSA (0.5%, 24 h), double thymidine (2 mM), hydroxyurea (2 mM, 16 h), MMS (250 uM, 4 h, then washed and incubated further), temozolomide (4 h, then 4 h more) or ionizing radiation (3 Gy, harvested after 6 h)

Sequences of proteins named here, by UniProt entry; tags and fusion partners are left off.
UniProt O96017: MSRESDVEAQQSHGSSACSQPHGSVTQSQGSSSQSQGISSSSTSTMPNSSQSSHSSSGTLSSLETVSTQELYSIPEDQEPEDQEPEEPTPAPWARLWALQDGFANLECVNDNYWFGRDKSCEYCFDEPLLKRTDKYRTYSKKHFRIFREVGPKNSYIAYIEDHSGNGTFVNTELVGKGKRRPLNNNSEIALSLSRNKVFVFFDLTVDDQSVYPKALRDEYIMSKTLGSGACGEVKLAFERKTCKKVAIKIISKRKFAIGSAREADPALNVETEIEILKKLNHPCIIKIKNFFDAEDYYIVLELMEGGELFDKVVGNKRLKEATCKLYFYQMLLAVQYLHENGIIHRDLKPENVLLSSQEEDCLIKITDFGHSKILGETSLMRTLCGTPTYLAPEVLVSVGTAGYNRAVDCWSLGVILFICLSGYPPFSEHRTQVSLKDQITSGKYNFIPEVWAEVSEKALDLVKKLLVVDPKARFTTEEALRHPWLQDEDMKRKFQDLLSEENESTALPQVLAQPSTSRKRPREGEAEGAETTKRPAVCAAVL
UniProt P27695: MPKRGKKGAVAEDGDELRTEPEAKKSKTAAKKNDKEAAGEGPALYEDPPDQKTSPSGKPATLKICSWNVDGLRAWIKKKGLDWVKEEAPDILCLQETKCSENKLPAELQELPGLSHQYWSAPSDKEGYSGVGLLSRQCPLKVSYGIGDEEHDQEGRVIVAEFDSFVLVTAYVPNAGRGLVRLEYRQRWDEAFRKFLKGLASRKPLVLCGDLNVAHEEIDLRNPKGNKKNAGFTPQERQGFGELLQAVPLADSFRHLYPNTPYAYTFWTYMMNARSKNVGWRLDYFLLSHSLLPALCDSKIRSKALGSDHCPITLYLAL

## AP endonuclease 1, Ape1 (from UniProt P27695 1-318)
  binding: binds
